Five molecules from paper PMC12794193 can be followed below.

The chains behind the UniProt entries cited, without tags or fusion partners.
UniProt Q9ULZ3: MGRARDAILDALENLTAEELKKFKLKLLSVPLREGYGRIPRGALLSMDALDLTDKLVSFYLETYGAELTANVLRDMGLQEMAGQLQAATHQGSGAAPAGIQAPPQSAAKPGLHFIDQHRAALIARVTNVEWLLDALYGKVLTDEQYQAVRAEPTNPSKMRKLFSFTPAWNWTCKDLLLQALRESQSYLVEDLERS
UniProt P29466: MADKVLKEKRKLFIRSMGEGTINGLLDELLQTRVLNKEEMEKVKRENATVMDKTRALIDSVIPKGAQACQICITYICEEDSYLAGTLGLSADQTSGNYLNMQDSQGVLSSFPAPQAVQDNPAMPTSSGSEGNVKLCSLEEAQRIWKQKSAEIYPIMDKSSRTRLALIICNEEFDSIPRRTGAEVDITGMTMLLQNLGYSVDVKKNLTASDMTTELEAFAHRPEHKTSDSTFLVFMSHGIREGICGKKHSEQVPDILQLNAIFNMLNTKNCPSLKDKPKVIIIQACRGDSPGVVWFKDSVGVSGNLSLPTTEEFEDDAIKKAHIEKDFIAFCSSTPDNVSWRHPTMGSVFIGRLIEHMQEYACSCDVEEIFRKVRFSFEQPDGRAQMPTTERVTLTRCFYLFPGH
UniProt Q96P20: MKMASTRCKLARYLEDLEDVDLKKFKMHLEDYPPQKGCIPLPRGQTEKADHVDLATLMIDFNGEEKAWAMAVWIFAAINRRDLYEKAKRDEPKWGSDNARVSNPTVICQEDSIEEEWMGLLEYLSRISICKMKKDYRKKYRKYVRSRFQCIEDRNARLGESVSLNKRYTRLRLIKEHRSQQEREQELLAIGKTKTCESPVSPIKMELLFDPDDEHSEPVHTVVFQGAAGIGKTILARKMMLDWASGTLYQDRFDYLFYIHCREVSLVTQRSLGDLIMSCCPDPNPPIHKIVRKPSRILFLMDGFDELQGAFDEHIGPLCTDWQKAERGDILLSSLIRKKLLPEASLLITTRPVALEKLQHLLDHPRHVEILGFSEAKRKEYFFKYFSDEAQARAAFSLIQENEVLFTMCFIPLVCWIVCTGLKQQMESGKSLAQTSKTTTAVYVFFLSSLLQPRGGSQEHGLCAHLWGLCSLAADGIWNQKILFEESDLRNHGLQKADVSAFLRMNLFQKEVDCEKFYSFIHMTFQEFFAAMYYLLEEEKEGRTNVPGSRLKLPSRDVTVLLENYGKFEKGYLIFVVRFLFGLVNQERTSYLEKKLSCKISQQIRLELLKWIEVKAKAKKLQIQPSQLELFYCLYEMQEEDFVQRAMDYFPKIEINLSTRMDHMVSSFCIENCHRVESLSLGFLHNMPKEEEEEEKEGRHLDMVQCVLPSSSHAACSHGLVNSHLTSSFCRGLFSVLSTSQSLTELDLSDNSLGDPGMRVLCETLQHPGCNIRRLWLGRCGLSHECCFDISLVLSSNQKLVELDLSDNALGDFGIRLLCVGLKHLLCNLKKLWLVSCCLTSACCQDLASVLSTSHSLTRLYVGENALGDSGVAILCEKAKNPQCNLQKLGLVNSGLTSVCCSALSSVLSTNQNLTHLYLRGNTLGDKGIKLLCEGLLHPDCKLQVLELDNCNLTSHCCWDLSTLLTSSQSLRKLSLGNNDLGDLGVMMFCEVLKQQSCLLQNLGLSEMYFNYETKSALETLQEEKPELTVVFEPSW
UniProt Q8R4B8: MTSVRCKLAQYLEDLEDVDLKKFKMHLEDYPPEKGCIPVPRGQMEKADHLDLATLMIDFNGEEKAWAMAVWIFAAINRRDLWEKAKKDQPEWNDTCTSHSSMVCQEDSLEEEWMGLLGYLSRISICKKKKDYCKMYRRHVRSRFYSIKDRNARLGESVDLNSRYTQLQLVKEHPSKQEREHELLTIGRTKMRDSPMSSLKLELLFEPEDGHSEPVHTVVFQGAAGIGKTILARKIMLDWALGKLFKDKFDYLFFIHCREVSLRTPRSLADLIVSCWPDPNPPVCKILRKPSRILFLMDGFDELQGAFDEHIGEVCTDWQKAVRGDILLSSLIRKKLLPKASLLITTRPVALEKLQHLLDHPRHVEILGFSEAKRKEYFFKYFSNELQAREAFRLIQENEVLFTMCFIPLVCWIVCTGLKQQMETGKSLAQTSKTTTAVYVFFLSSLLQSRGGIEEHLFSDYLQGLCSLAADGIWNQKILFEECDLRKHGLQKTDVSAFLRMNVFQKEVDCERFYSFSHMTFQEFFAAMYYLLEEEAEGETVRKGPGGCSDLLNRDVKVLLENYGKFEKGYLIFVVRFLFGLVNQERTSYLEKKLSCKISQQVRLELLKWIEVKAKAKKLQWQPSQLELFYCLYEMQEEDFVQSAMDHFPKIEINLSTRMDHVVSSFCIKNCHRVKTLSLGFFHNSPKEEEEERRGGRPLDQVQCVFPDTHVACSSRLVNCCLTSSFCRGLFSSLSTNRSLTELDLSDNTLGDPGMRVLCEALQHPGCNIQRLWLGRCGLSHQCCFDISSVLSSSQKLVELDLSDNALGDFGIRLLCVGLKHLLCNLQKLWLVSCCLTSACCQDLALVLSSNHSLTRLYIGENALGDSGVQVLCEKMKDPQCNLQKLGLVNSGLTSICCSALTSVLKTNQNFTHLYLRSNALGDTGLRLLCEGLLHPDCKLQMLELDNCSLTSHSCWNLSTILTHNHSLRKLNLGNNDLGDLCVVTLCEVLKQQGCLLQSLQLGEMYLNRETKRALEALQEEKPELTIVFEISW

Assay [1] has as its target T1, Myc-SENP6 (human) (UniProt Q9GZR1).
T1 sequence: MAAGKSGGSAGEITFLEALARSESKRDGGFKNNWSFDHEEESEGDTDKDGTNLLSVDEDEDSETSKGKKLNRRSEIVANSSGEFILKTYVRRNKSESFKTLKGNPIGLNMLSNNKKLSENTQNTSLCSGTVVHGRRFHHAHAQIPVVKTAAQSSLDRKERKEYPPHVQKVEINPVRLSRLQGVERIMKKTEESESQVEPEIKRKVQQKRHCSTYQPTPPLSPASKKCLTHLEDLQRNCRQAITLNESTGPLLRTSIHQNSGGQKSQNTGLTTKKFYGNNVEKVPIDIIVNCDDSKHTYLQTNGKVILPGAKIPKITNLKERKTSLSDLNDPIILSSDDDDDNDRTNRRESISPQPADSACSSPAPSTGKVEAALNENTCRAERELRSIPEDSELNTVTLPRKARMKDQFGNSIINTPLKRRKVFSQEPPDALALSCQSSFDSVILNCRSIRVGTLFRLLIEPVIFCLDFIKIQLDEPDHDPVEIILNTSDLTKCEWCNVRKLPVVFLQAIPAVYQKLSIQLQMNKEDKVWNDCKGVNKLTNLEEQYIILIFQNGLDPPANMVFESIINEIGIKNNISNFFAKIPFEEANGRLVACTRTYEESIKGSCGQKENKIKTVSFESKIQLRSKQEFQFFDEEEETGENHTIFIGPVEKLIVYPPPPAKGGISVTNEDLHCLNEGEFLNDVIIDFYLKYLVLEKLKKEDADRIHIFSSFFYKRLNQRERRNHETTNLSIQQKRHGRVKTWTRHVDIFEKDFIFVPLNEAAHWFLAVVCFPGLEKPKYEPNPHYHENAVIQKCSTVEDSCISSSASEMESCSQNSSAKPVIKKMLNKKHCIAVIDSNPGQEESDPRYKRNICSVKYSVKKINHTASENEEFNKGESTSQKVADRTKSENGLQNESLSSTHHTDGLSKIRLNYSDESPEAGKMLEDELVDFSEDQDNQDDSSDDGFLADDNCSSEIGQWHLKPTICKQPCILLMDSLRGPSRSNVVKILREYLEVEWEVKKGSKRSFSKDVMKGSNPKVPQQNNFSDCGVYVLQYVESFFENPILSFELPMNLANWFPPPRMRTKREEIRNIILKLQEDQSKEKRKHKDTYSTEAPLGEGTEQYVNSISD
In words: co-IP; HEK293T cells co-transfected with tagged constructs; lysis in 25 mM tris-HCl pH 7.4, 150 mM NaCl, 1 mM EDTA, 1% NP-40, 5% glycerol; antibody (anti-Myc or anti-Flag) overnight at 4 °C, protein A/G magnetic beads 4 h; immunoblot; some panels with CQ (10 μM, 6 h), Myc-SENP6 overexpression or Senp6 knock-down.

The target of a further assay is T2, Myc-SENP6^C1030S (human) (UniProt Q9GZR1).
T2 sequence: T1 sequence with C1030S
The assay is described as above.

For assay [2], the target named is T3, endogenous SENP6 (mouse (endogenous in MH-S cells or peritoneal macrophages)) (UniProt Q6P7W0).
T3 sequence: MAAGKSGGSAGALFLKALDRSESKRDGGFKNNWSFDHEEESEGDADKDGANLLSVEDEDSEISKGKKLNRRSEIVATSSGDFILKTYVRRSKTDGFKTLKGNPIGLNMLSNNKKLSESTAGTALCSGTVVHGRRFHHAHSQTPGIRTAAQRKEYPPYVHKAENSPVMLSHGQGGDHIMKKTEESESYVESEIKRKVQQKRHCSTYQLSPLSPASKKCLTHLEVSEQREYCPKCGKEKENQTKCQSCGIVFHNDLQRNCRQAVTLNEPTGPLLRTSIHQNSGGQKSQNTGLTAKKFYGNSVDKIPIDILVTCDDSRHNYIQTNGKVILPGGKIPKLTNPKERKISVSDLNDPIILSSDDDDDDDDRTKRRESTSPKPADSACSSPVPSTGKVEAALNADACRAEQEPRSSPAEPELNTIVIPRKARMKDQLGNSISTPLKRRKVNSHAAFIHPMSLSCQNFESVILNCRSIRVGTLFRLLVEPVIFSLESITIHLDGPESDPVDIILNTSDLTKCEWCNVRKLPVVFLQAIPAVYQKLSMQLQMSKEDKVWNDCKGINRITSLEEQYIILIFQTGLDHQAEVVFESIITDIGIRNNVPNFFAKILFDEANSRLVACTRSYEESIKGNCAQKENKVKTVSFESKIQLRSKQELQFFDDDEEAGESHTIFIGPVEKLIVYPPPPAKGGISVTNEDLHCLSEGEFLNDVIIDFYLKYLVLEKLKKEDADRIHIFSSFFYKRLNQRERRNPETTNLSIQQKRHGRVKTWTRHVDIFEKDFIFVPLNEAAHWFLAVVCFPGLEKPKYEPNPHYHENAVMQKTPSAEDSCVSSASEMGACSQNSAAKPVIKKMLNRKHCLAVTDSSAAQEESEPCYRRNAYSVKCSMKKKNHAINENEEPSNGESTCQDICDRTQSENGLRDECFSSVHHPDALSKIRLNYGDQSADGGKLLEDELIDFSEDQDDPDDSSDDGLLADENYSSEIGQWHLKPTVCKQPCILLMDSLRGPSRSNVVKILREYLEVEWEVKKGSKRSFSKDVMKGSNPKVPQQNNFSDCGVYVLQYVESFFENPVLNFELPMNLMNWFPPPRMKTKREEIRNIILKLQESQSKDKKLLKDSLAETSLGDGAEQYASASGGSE
In words: co-IP; endogenous proteins in mouse macrophages stimulated with LPS alone or with LPS followed by ATP; lysis in 25 mM tris-HCl pH 7.4, 150 mM NaCl, 1 mM EDTA, 1% NP-40, 5% glycerol; protein A/G magnetic beads; immunoblot.

Assay [3] addresses T1, Myc-SENP6 (human). In words: co-IP; HEK293T cells co-transfected with tagged constructs; lysis in 25 mM tris-HCl pH 7.4, 150 mM NaCl, 1 mM EDTA, 1% NP-40, 5% glycerol; antibody (anti-Myc or anti-Flag) overnight at 4 °C, protein A/G magnetic beads 4 h; immunoblot; some panels with CQ (10 μM, 6 h), Myc-SENP6 overexpression or Senp6 knock-down. The source holds these as a separate data set.

Residue numbers refer to the chain shown, from its start. Read-outs that look alike come from different tables or passages of the source. Results are given in words; binding and its absence hold for the method and conditions named. In cells and extracts the contact can be indirect. Some binding calls cover weakened binding; strength is not graded here. For part of these data: Where a sequence is shown, tags or fusion partners need not be part of it.

As to Flag-PYCARD (from UniProt Q9ULZ3 1-195), in the assay with Myc-SENP6 (human) [1], the binding result is “no binding”.
Same read-out and setting: next, “Flag-caspase-1 (from UniProt P29466 1-404) (enzyme)”: “no binding”.
With Flag-NLRP3 (from UniProt Q96P20 1-1036), the binding entry with Myc-SENP6 (human) [1] and with Myc-SENP6^C1030S (human) was “binds” in each case.
Take “endogenous NLRP3 (from UniProt Q8R4B8 1-1033)”: in assay [2], the binding result is “binds”.

B1: His-MARCHF7 (enzyme, UniProt Q9H992 1-704)
chain: MESKPSRIPRRISVQPSSSLSARMMSGSRGSSLNDTYHSRDSSFRLDSEYQSTSASASASPFQSAWYSESEITQGARSRSQNQQRDHDSKRPKLSCTNCTTSAGRNVGNGLNTLSDSSWRHSQVPRSSSMVLGSFGTDLMRERRDLERRTDSSISNLMDYSHRSGDFTTSSYVQDRVPSYSQGARPKENSMSTLQLNTSSTNHQLPSEHQTILSSRDSRNSLRSNFSSRESESSRSNTQPGFSYSSSRDEAPIISNSERVVSSQRPFQESSDNEGRRTTRRLLSRIASSMSSTFFSRRSSQDSLNTRSLNSENSYVSPRILTASQSRSNVPSASEVPDNRASEASQGFRFLRRRWGLSSLSHNHSSESDSENFNQESEGRNTGPWLSSSLRNRCTPLFSRRRREGRDESSRIPTSDTSSRSHIFRRESNEVVHLEAQNDPLGAAANRPQASAASSSATTGGSTSDSAQGGRNTGISGILPGSLFRFAVPPALGSNLTDNVMITVDIIPSGWNSADGKSDKTKSAPSRDPERLQKIKESLLLEDSEEEEGDLCRICQMAAASSSNLLIEPCKCTGSLQYVHQDCMKKWLQAKINSGSSLEAVTTCELCKEKLELNLEDFDIHELHRAHANEQAEYEFISSGLYLVVLLHLCEQSFSDMMGNTNEPSTRVRFINLARTLQAHMEDLETSEDDSEEDGDHNRTFDIA
Regarding B1, the binding result with Myc-SENP6 (human) [3] is reported as “binds”.
